Measurements reported in PubChem BioAssay AID504786 (Drosophila RNAi Screening Center, 2011)

Aim: 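Knock-downs reducing HIF reporter induction by the iron chelator DFO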 (primary screen)
Cell system: Drosophila S2 cells with a stable HIF luciferase reporter
Reagent: long dsRNA against Drosophila genes, about 0.2 µg dsRNA per well of a 384-well plate
Duration: three days of knock-down, then 20 h of DFO before reading
Treatment: desferrioxamine (DFO) at 100 µM, an iron chelator that mimics hypoxia, for 20 h
Read-out: 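Firefly luciferase driven by the mouse ldh-a hypoxia-response element, measured after 20 h of 100 µM DFO; z-scores per plate, higher means more signal lost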
Reading the numbers: z-score: higher = stronger loss of HIF reporter signal
In all, the deposit lists about 21,000 reagents; this is an unselected part of those that have a named target and a result. 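Primary screen; positive scores mean lost reporter signal, so the sign may be inverted from the usual convention.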 No sequences are given here.

no.	gene	amplicon	z-score, replicate 1	z-score, replicate 2
1	MESR6 (GeneID 40083)	DRSC10720	-0.2	-0.1
2	Yif1 (GeneID 43217)	DRSC15817	-0.5	-0.3
3	Cbp20 (GeneID 42166)	DRSC16601	1.9	3
4	Jon65Ai (GeneID 38685)	DRSC09731	-0.4	-0.6
5	Nedd4 (GeneID 39958)	DRSC11234	-0.2	-0.5
6	CG32027 (retired record) (GeneID 317830)	DRSC09571	0	0.2
7	CG11437 (GeneID 40470)	DRSC11659	0	0
8	Hexo2 (GeneID 31808)	DRSC18671	-0.3	-0.2
9	ACC (GeneID 35761)	DRSC06059	0.8	1.1
10	ACC (GeneID 35761)	DRSC07249	0.5	1.8
11	TM4SF (GeneID 37786)	DRSC04661	-0.4	-0.1
12	CG34160 (GeneID 5740175)	DRSC01131	-0.1	0.1
13	Pex16 (GeneID 40293)	DRSC11750	-0.3	-0.6
14	CG6793 (GeneID 39369)	DRSC10714	-0.3	-0.5
15	Mau2 (GeneID 41830)	DRSC15550	0	0.2
16	CG1113 (GeneID 40629)	DRSC12163	-0.1	-0.3
17	Rpn3 (GeneID 35176)	DRSC03318	5.7	4.6
18	Aps (GeneID 39226)	DRSC10629	-0.3	-0.3
19	mRpL55 (GeneID 42290)	DRSC14764	1.4	1.6
20	CG14562 (GeneID 40439)	DRSC11723	-0.3	-0.2
21	mthl13 (GeneID 246395)	DRSC05238	-0.1	-0.1
22	CG15771 (GeneID 31500)	DRSC18077	-0.2	-0.5
23	Sirt1 (GeneID 34708)	DRSC03435	-0.6	-1.3
24	Or88a (GeneID 41715)	DRSC16770	-0.3	0
25	Muc68D (GeneID 39326)	DRSC10569	-0.4	-0.3
26	CG18649 (GeneID 39636)	DRSC10334	0.1	0.2
27	CG7148 (GeneID 40432)	DRSC11802	-0.3	-0.5
28	CG14572 (GeneID 40422)	DRSC11733	-0.3	-0.4
29	Or74a (GeneID 39929)	DRSC11245	-0.1	0.4
30	Mcr (GeneID 44071)	DRSC03366	-0.3	-0.3
31	CG15027 (GeneID 32440)	DRSC19608	-0.3	-0.5
32	CG4558 (GeneID 31631)	DRSC18369	-0.4	-0.6
33	sip1 (GeneID 44238)	DRSC03609	0.6	2
34	barc (GeneID 40369)	DRSC11792	1.4	1.1
35	CG9689 (GeneID 31922)	DRSC18440	-0.1	0
36	Cad86C (GeneID 41302)	DRSC15587	-0.4	-0.4
37	Cad86C (GeneID 41302)	DRSC15611	-0.1	0
38	ms(3)76Cc (GeneID 40142)	DRSC11071	-0.3	-0.3
39	CG13311 (GeneID 39008)	DRSC09982	0	1.3
40	Myt1 (GeneID 38649)	DRSC11228	0.4	-0.8
41	Flo1 (GeneID 36726)	DRSC07427	-0.2	-0.3
42	me31B (GeneID 34364)	DRSC03569	-0.4	-0.7
43	CG7747 (GeneID 36820)	DRSC07038	-0.2	-0.5
44	RPA2 (GeneID 35364)	DRSC03184	-0.3	-0.1
45	CG10970 (GeneID 31830)	DRSC17772	-0.4	-0.6
46	CG14852 (GeneID 41765)	DRSC14976	0.3	-0.6
47	Pep (GeneID 45961)	DRSC11252	0.4	1.1
48	ssh (GeneID 42986)	DRSC16730	-0.1	-0.2
49	Cbp53E (GeneID 36905)	DRSC07356	-0.3	-0.1
50	CG13640 (GeneID 42967)	DRSC14639	-0.3	0.9
51	CG3589 (GeneID 37966)	DRSC04392	-0.2	-0.4
52	Bili (GeneID 43019)	DRSC14405	0.4	0.4
53	CG34011 (GeneID 3885619)	DRSC00888	-0.2	-0.4
54	CG43897 (GeneID 39153)	DRSC10965	-0.2	-1
55	CG43897 (GeneID 39153)	DRSC10967	-0.3	-0.3
56	RtcB (GeneID 35220)	DRSC03280	-0.4	-0.7
